{"source": "patent US4876266A", "about": "“1-aralkyl-2-mercaptoimidazolines as DBH inhibitors” (SmithKline Beckman Corporation, priority 1987, dated 1989)", "system": "spontaneously hypertensive rats", "experiment": "mean arterial blood pressure in spontaneously hypertensive rats, indwelling cannulae in the tail arteries", "format": "in vivo, rat", "settings": "50 mg/kg orally; monitored for 260 minutes", "procedure": "Further, spontaneously hypertensive rats were treated with a suspension or solution of 1-(3,5-difluorobenzyl)-2-mercaptoimidazoline at a dose of 50 mg/kg orally and mean arterial blood pressure was monitored for 260 minutes using indwelling cannulae in the tail arteries. […] Maximum blood pressure reduction was approximately 15 to 20 mm Hg.", "note": "At least one compound was matched to its structure with a doubt left."}
{"smiles": "Fc1cc(F)cc(CN2CCN=C2S)c1", "note": "[1-(3,5-Difluorobenzyl)-2-mercaptoimidazoline]", "values": [{"measurement": "blood pressure reductions compared to vehicle-treated controls", "value": "significant blood pressure reductions"}]}
